Results are given in words; binding and its absence hold for the method and conditions named. For part of these data: In cells and extracts the contact can be indirect. Some entries that bind do so weakly or less than the wild type. For part of these data: Where a sequence is shown, tags or fusion partners need not be part of it.
T1: epitope-tagged zz fusion of Rrp47 (S. cerevisiae) (UniProt P38801)
T1 sequence: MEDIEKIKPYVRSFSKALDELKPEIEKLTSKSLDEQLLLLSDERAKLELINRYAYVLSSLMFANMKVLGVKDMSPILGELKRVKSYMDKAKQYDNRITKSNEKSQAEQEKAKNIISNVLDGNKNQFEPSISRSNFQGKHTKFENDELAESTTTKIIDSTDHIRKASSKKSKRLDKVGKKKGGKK

Amino acid sequences for entries named in this document (tags omitted).
UniProt Q02821: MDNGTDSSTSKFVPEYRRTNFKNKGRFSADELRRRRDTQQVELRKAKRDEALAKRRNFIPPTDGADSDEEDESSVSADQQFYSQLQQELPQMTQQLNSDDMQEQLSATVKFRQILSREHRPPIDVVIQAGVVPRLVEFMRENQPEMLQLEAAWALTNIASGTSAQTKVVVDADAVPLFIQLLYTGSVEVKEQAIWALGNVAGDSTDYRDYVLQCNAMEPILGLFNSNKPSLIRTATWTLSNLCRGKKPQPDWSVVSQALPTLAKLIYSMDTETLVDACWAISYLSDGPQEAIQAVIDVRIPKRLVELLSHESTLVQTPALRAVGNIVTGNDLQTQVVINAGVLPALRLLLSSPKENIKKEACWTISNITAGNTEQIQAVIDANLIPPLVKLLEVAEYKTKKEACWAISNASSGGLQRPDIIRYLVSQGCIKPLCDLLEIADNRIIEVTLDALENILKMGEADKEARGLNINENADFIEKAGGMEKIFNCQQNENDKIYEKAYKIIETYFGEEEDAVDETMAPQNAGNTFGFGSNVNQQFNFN

T2: epitope-tagged zz fusion of Rrp6 (S. cerevisiae) (UniProt Q12149)
T2 sequence: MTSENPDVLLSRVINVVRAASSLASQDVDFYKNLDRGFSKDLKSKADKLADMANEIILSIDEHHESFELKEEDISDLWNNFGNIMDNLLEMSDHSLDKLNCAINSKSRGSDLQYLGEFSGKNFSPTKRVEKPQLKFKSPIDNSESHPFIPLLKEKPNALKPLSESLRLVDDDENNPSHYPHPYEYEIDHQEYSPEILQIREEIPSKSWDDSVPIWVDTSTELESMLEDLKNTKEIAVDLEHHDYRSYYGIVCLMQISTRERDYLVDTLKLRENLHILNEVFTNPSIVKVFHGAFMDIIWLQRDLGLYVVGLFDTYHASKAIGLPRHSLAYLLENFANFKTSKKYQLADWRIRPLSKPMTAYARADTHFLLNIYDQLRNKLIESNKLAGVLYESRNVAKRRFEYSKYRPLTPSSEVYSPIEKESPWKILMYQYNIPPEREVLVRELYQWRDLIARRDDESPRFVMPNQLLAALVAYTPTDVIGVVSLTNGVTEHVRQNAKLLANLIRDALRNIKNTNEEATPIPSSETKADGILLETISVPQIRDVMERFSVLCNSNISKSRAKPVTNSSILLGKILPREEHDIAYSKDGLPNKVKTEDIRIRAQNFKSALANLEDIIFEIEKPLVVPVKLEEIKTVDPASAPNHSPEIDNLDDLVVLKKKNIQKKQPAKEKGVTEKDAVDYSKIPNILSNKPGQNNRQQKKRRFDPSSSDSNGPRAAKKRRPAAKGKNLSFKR


How the values were obtained:
[1] = target: T1, epitope-tagged zz fusion of Rrp47 (S. cerevisiae); assay: pull-down; yeast cell extracts (10 mM Tris-HCl pH 7.6, 150 mM NaCl, 5 mM MgCl2) on IgG-Sepharose beads, eluted with 0.5 M acetic acid; Western blot with Srp1-specific antibody; non-tagged strain as control
[2] = target: T2, epitope-tagged zz fusion of Rrp6 (S. cerevisiae); assay: as above
[3] = target: C-terminally truncated Rrp47NT protein (S. cerevisiae) (UniProt P38801); assay: SEC; Superdex 200, 50 mM HEPES pH 7.6, 300 mM NaCl; Stokes radius against marker proteins, combined with the sedimentation coefficient or theoretical dimer masses; both purified

Row | binding [1] | binding [2] | binding [3] | Molecule
1 | no binding | binds | – | Srp1 (yeast importin-α) (from UniProt Q02821 1-542)
2 | – | – | binds | C-terminally truncated Rrp47NT protein (domain or fragment, S. cerevisiae, UniProt P38801 1-120, looked up, Rrp47 (Lrp1), S. cerevisiae, N-terminal domain; the discussion gives it as the first 120 amino acid residues; it probably carries a His tag like the full-length protein; also called N-terminal domain of Rrp47; Rrp47NT polypeptide) MEDIEKIKPYVRSFSKALDELKPEIEKLTSKSLDEQLLLLSDERAKLELINRYAYVLSSLMFANMKVLGVKDMSPILGELKRVKSYMDKAKQYDNRITKSNEKSQAEQEKAKNIISNVLD

— article PMC3668751, “Assembly of the Yeast Exoribonuclease Rrp6 with Its Associated Cofactor Rrp47 Occurs in the Nucleus and Is Critical for the Controlled Expression of Rrp47*” (The Journal of Biological Chemistry, 2013)
